Measurements reported in the supplement of paper PMC11150407.
About 45 (2%) of roughly 3,000 compounds showed an effect of 50% or more. The list shows a part of the results.

These molecules were tested on MOLM1 and UCSD/AML1 (averaged) (assay: cell viability relative to DMSO control (POC); higher = less growth inhibition). Conditions: 1 µM; 72 h.
Procedure: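 Primary viability screen in the 3q26 EVI1-high AML cell lines MOLM1 and UCSD/AML1, compounds at 1 uM for 72 h. ATP CellTiter-Glo read-out given as percent viable over DMSO control (POC), averaged over duplicates. This mapping covers the TimTec NDL-3000 natural derivative library, whose compounds are identified by TimTec catalogue codes (ST...).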

Row | Compound | cell viability [%]
1 | O=C(/C=C/c1ccc2c(c1)OCO2)N(C(=O)NCc1ccco1)c1ccccc1 | 97.3
2 | N#Cc1cn(CC(=O)NCCc2c[nH]c3ccccc23)c2ccccc12 | 105
3 | O=C(CCNc1ccc(F)c(Cl)c1)c1cc2ccccc2oc1=O | 91
4 | Cc1c(C(=O)N2CCCCC2)[nH]c2ccc(OCc3ccccc3)cc12 | 102
5 | COCCOC(=O)C1=C(N)Oc2c(oc(CO)cc2=O)C1c1ccccc1F (centres undefined) | 121
6 | COc1ccc(C(=O)COC(=O)c2cccc(NC(=O)c3ccc(OC)c(OC)c3)c2)cc1 | 112
7 | COC(=O)CNC(=O)c1ccc(Cl)c([N+](=O)[O-])c1 | 94.2
8 | CN(C)C(=O)c1ccc(NCCC(=O)c2cc3ccccc3oc2=O)cc1 | 93.1
9 | Cc1[nH]c2ccc(F)cc2c1CCNC(=O)c1cc2ccccc2oc1=O | 102
10 | CCOc1ccc2oc(=O)cc(CN3CCN(CC(=O)NC4CCCC4)CC3)c2c1 | 95.6
11 | COc1cc(-c2nn(CNc3ccc(C)cc3)c(=S)o2)cc(OC)c1OC | 101
12 | O=C(O)C1Cc2c([nH]c3ccccc23)C(c2ccc(Cl)cc2)N1 (centres undefined) | 109
13 | Cc1cc(=O)[nH]c(=O)n1COCCOc1ccc(Cl)cc1 | 114
14 | CCOC(=O)c1cccc(NC(=O)c2cc(OC)cc(OC)c2)c1 | 96.2
15 | COc1cc(CNC(=O)c2ccccc2Br)cc(OC)c1OC | 83.5
16 | COc1cc(NC(=O)c2cc(OC)c(OC)c(OC)c2)c(OC)cc1Cl | 99
17 | C[C@@H](O)[C@H](NC(=O)OCc1ccccc1)C(=O)OCc1ccccc1 | 96.9
18 | CCOC(=O)Cn1ccc(NC(=O)c2ccc3c(c2)OCO3)n1 | 97
19 | CCOc1ccc(C(=O)NCCn2cc(Cl)cn2)cc1OCC | 94.2
20 | C=C(C)C1CCC2(COC(C)=O)CCC3(C)C(CCC4C5(C)CCC(=O)C(C)(C)C5CCC43C)C12 (centres undefined) | 89
21 | CN(C)C(=O)CSc1nc(N)cc(=O)[nH]1 | 101
22 | CCOc1cc(/C=C/C(=O)c2ccccc2)ccc1OCc1ccccc1Cl | 102
23 | CC(=O)OC1CCC2(C)C(CCC3(C)C2C(=O)C=C2C4CC(C)(C(=O)OCC5CCCN6CCCCC56)CCC4(C)CCC23C)C1(C)C (centres undefined) | 91.3
24 | COc1cccc(CCCN)c1 | 101
25 | COc1cccc(CN2COc3c(cc4c(C)c(C)c(=O)oc4c3C)C2)c1 | 96.1
26 | CC(NC(=O)CSc1nc2ccccc2c(=O)[nH]1)c1nc2ccccc2[nH]1 (centres undefined) | 104
27 | COc1ccc(C(O)C(=O)O)cc1O (centres undefined) | 91.4
28 | COc1cc(OC)c(OC)cc1/C=C(\C#N)C(=O)OC(C)C | 88
29 | CC(=O)OC1CCC2(C)C(CCC3(C)C2C(=O)C=C2C4CC(C)(C(=O)Nc5cccc6ccccc56)CCC4(C)CCC23C)C1(C)C (centres undefined) | 104

A different layout for part of the listing above:
COCCOC(=O)C1=C(N)Oc2c(oc(CO)cc2=O)C1c1ccccc1F (centres undefined)
  cell viability [%]: 121
CCOC(=O)Cn1ccc(NC(=O)c2ccc3c(c2)OCO3)n1
  cell viability [%]: 97
